# The list shows a part of the results.
# Biological target: T1, OsSMF1 (Oryza sativa, UniProt Q6ZLB0 1-436)
# T1 sequence: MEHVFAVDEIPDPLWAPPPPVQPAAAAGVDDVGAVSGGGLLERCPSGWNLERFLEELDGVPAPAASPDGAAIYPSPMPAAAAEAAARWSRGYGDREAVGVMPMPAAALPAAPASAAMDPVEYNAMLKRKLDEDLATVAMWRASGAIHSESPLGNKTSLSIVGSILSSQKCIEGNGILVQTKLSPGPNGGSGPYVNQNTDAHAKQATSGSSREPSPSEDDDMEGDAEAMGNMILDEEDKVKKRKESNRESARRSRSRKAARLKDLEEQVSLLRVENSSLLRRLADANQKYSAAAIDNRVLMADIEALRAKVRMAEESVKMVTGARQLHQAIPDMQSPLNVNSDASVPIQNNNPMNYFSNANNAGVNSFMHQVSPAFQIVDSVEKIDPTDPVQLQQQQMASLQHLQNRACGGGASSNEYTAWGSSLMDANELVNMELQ
# Assay: protein-binding microarray (RPBM); PBS, 2% BSA, 51.3 ng/ul salmon testes DNA, 50 uM zinc acetate, 200 nM TF, 25 C, 1 h; high values mean tight binding
# Conditions: protein: recombinant; tags: N-terminal polyhistidine and DsRed monomer fusion (pET32a); chain copies: 2; label: CyDye5-dUTP incorporated in the synthesized complementary strand; 3' TTTTT single-stranded linker to array surface; dsDNA, one strand shown
# Method in brief: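 An Axon 4000B scanner gave the binding signal as per-feature fluorescence intensity in arbitrary units. This followed washing of a custom Agilent array that had been incubated for 1 h at 25 °C with 200 nM protein in PBS, 2% BSA, salmon testes DNA and 50 µM zinc acetate. The proteins were transcription factors fused at the N-terminus to polyhistidine and DsRed, expressed in E. coli BL21-CodonPlus and purified on Ni–NTA.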
row,Sequence,binding signal
1,TCAGGTATATAAGCTTTGCAAACAACCAAATAACAGGTACCGGAGTCACCTAGTGCAG,3940 fluorescence intensity (a.u.)
2,GTTACCGTCCTGTTGGCTGGTTATAACCGTTGTTGTCGTTCGGAGTCACCTAGTGCAG,3200 fluorescence intensity (a.u.)
3,AGCTTGGTAAGTAAAGTGGTGCCGTGTCGGGTGTGAGGTTCGGAGTCACCTAGTGCAG,33900 fluorescence intensity (a.u.)
4,CCCAGGACCAACGCCAACCATATGCACAGACTAGTAAACGCGGAGTCACCTAGTGCAG,3350 fluorescence intensity (a.u.)
5,CGTCTGCCACGTCACTTTCGCCGCCCTCTGGGATGGCGATCGGAGTCACCTAGTGCAG,14800 fluorescence intensity (a.u.)
6,GATCTCCTTTACACGTGATGTTGACGTGGCGTTTAGGTGGCGGAGTCACCTAGTGCAG,26500 fluorescence intensity (a.u.)
7,TTCCTGCTGCCACGTCAAGACACCATCTGGAAGACTGGAACGGAGTCACCTAGTGCAG,8830 fluorescence intensity (a.u.)
8,CCACAAGCTGACCTTAAATTACGTGTGGTTGCCGGTTAATCGGAGTCACCTAGTGCAG,3260 fluorescence intensity (a.u.)
9,ATTAGGCACACGTAGGTATGGGATGGGCCAAGCCCATGTGCGGAGTCACCTAGTGCAG,3400 fluorescence intensity (a.u.)
10,AAGTTCCGCCATTGCACACGTGGCGTGATATGAACAGGGACGGAGTCACCTAGTGCAG,12200 fluorescence intensity (a.u.)
11,CAAGCGTACAGGTACAGAACACGTAACGTGTCCGGCACTACGGAGTCACCTAGTGCAG,3140 fluorescence intensity (a.u.)
12,AGCGAAGTAAGGGTCACATGCATGCATCATGCCGTCCGTCCGGAGTCACCTAGTGCAG,3820 fluorescence intensity (a.u.)
13,TTAGTTAGGATCAATAAATTTATCTCACGAATTATTTAGACGGAGTCACCTAGTGCAG,25900 fluorescence intensity (a.u.)
14,TGTTTAGATCTAGTGGTGTAAAGTTTTAGTGTGTCACATCCGGAGTCACCTAGTGCAG,4590 fluorescence intensity (a.u.)
15,ACATCTTAAACTGCAATGCAACTGCTTAGCATAGTATAAGCGGAGTCACCTAGTGCAG,3160 fluorescence intensity (a.u.)
16,ACTGAGCTAACAGAGACGATGGGTCATACTGGTGAATCAGCGGAGTCACCTAGTGCAG,5790 fluorescence intensity (a.u.)
17,AAGACCTGGGGTTACCCATTGCTGATGGCCTTAGCGAGCCCGGAGTCACCTAGTGCAG,6450 fluorescence intensity (a.u.)
18,TTGGGGAAGGTGGTGGCGCACATTGGATGGGGCAGGAGGGCGGAGTCACCTAGTGCAG,3150 fluorescence intensity (a.u.)
19,AAGAGATCCTTGTGTTTCGGAAGAATTTTGGTTGGTGTATCGGAGTCACCTAGTGCAG,23500 fluorescence intensity (a.u.)
20,GCGGGCACGTCACCGGTGGAAAATATGTTTACTCGCCACGCGGAGTCACCTAGTGCAG,6340 fluorescence intensity (a.u.)
21,TGGCTGTGGCATCCGTGATGACGATGATGACCTTGACGGCCGGAGTCACCTAGTGCAG,4020 fluorescence intensity (a.u.)
22,GGAGAATTGGACACGTCAGCGTCATCCAGGCTCCCAGCAGCGGAGTCACCTAGTGCAG,27600 fluorescence intensity (a.u.)
23,CTACGGTGATGTGCCATGTCCCCTTCATGGGTCAACATGTCGGAGTCACCTAGTGCAG,3210 fluorescence intensity (a.u.)
24,CCAACGTGTCCACTCACGGCTTACACGTGCCACGCCCATCCGGAGTCACCTAGTGCAG,8410 fluorescence intensity (a.u.)
25,GGAGCACTGTGTAGCGGGTCCTCCAAGTACCTAACCCGTTCGGAGTCACCTAGTGCAG,3150 fluorescence intensity (a.u.)
26,CCGATCAACGTTTAATGTGACACCTATAAATTTCTCTTTTCGGAGTCACCTAGTGCAG,3590 fluorescence intensity (a.u.)
27,CATGAACTCGGAGGGAGGGATTGGCGCTGGCATAACCAATCGGAGTCACCTAGTGCAG,18200 fluorescence intensity (a.u.)

# 15 neighbouring entries already listed:
row,Sequence,binding signal
7,TTCCTGCTGCCACGTCAAGACACCATCTGGAAGACTGGAACGGAGTCACCTAGTGCAG,8830 fluorescence intensity (a.u.)
8,CCACAAGCTGACCTTAAATTACGTGTGGTTGCCGGTTAATCGGAGTCACCTAGTGCAG,3260 fluorescence intensity (a.u.)
9,ATTAGGCACACGTAGGTATGGGATGGGCCAAGCCCATGTGCGGAGTCACCTAGTGCAG,3400 fluorescence intensity (a.u.)
10,AAGTTCCGCCATTGCACACGTGGCGTGATATGAACAGGGACGGAGTCACCTAGTGCAG,12200 fluorescence intensity (a.u.)
11,CAAGCGTACAGGTACAGAACACGTAACGTGTCCGGCACTACGGAGTCACCTAGTGCAG,3140 fluorescence intensity (a.u.)
12,AGCGAAGTAAGGGTCACATGCATGCATCATGCCGTCCGTCCGGAGTCACCTAGTGCAG,3820 fluorescence intensity (a.u.)
13,TTAGTTAGGATCAATAAATTTATCTCACGAATTATTTAGACGGAGTCACCTAGTGCAG,25900 fluorescence intensity (a.u.)
14,TGTTTAGATCTAGTGGTGTAAAGTTTTAGTGTGTCACATCCGGAGTCACCTAGTGCAG,4590 fluorescence intensity (a.u.)
15,ACATCTTAAACTGCAATGCAACTGCTTAGCATAGTATAAGCGGAGTCACCTAGTGCAG,3160 fluorescence intensity (a.u.)
16,ACTGAGCTAACAGAGACGATGGGTCATACTGGTGAATCAGCGGAGTCACCTAGTGCAG,5790 fluorescence intensity (a.u.)
17,AAGACCTGGGGTTACCCATTGCTGATGGCCTTAGCGAGCCCGGAGTCACCTAGTGCAG,6450 fluorescence intensity (a.u.)
18,TTGGGGAAGGTGGTGGCGCACATTGGATGGGGCAGGAGGGCGGAGTCACCTAGTGCAG,3150 fluorescence intensity (a.u.)
19,AAGAGATCCTTGTGTTTCGGAAGAATTTTGGTTGGTGTATCGGAGTCACCTAGTGCAG,23500 fluorescence intensity (a.u.)
20,GCGGGCACGTCACCGGTGGAAAATATGTTTACTCGCCACGCGGAGTCACCTAGTGCAG,6340 fluorescence intensity (a.u.)
21,TGGCTGTGGCATCCGTGATGACGATGATGACCTTGACGGCCGGAGTCACCTAGTGCAG,4020 fluorescence intensity (a.u.)

# Remaining list, next part.

row,Sequence,binding signal
1,CGTGAAAGTGCTTCGAAAGGTGTCAGCAGGTGCGCGGAGCCGGAGTCACCTAGTGCAG,3530 fluorescence intensity (a.u.)
2,GGCCGCGGGTGACACGGAGGCAGCCTTCCTGTCCACCTGCCGGAGTCACCTAGTGCAG,4690 fluorescence intensity (a.u.)
3,GAGTGGGCTTACCGCCACCCGCGGTTTGGCAGTTATCGCGCGGAGTCACCTAGTGCAG,3520 fluorescence intensity (a.u.)
4,GGAGCTCCACAGAACTACAGCTCATCATTGGTGTAAGAGGCGGAGTCACCTAGTGCAG,3690 fluorescence intensity (a.u.)
5,ATGGCAACAGCAGCAGCCGTACGTTGCCGTCGCCGTCACGCGGAGTCACCTAGTGCAG,4060 fluorescence intensity (a.u.)
6,CCCCTAACCCAATCTGGAGTGGTTTTGATCCTACGTGGCACGGAGTCACCTAGTGCAG,26700 fluorescence intensity (a.u.)
7,CTAGAGGAAGTGGGGAAGCCGACGACCCCACGTCTCGCCACGGAGTCACCTAGTGCAG,3940 fluorescence intensity (a.u.)
8,AGAATGTATGCTATGTATGTATAAGTGTAAATACATGTGGCGGAGTCACCTAGTGCAG,3510 fluorescence intensity (a.u.)
9,GTGCGTATGTGTTGTGAGTATCTGTGTTGTACTGTGTAATCGGAGTCACCTAGTGCAG,3530 fluorescence intensity (a.u.)
10,GCCTACGAAGCCGGAGCCTACGAGGAGCCAAGTCATCGGGCGGAGTCACCTAGTGCAG,6200 fluorescence intensity (a.u.)
11,ACTCGCCCGGTGTGCTGCAGCCTGCAGCCGCCGCCGTCAGCGGAGTCACCTAGTGCAG,3420 fluorescence intensity (a.u.)
12,CTCTTACCCTGAATTTCTGTCATTAACACAATGGCTCAGGCGGAGTCACCTAGTGCAG,3440 fluorescence intensity (a.u.)
13,TTTTCATTTCAGACGTGTGCAACTCTCTGTTCTTTACTCCCGGAGTCACCTAGTGCAG,5130 fluorescence intensity (a.u.)
14,GGATTGGCGACTCGACGTTGACAACATGACATATGAGGTACGGAGTCACCTAGTGCAG,4210 fluorescence intensity (a.u.)
15,ACAGGATGCGTCTTCACATATGACGTGGTTGAGGCTTATGCGGAGTCACCTAGTGCAG,11200 fluorescence intensity (a.u.)
16,AGACATCTTGATCTCAAGACGTCACATAGGACAGAACCACCGGAGTCACCTAGTGCAG,4480 fluorescence intensity (a.u.)
17,CTCCATCTCGGCCGTCCGTACCTACACGTGTAGGCCGATCCGGAGTCACCTAGTGCAG,3830 fluorescence intensity (a.u.)
18,TAATGAATTAGGGCATTGGATGTACCAACTTATGTTATATCGGAGTCACCTAGTGCAG,23300 fluorescence intensity (a.u.)
19,GACTGTTTCGATTAGGCCAGCAACCTCACCTCTCCTATATCGGAGTCACCTAGTGCAG,5030 fluorescence intensity (a.u.)
20,ACCTGCACACCCACGACACGTCGCGCCGCTCATGCCCTTTCGGAGTCACCTAGTGCAG,5650 fluorescence intensity (a.u.)
21,GTTTGGAAACTTCTCTCGTGCGAAAGTTAAACGGGATGATCGGAGTCACCTAGTGCAG,3180 fluorescence intensity (a.u.)
22,CGTCATTCGAGCCCACTAACATTAACGAGCCACGTTTATTCGGAGTCACCTAGTGCAG,4180 fluorescence intensity (a.u.)
23,GGTCGCGTCGCCCCGCTCCAACTCTCCAAGCGGAAACACACGGAGTCACCTAGTGCAG,11600 fluorescence intensity (a.u.)
24,GATGGGGTGAGTTCTGGGCGTATCCACGTAGGATTTCTACCGGAGTCACCTAGTGCAG,8320 fluorescence intensity (a.u.)
25,TAGCTCTGGCGGTGATGGGCGGTGATGCAGAGGAGACAAGCGGAGTCACCTAGTGCAG,32300 fluorescence intensity (a.u.)
26,CACTTCTCCACGACGACGCGTCCTCCGCTGTATATGCCCCCGGAGTCACCTAGTGCAG,4280 fluorescence intensity (a.u.)
27,CTGTGGGCCAGCGCCCACGGTGTCACGCCCGCGCACACCTCGGAGTCACCTAGTGCAG,3870 fluorescence intensity (a.u.)

# Reference: publication PMC7819943, “Rice protein-binding microarrays: a tool to detect cis-acting elements near promoter regions in rice”
